Laboratory results from publication PMC12681554.

By UniProt entry, the sequences of proteins in these tests, tags left out. Residues count along the entry.
UniProt P09429: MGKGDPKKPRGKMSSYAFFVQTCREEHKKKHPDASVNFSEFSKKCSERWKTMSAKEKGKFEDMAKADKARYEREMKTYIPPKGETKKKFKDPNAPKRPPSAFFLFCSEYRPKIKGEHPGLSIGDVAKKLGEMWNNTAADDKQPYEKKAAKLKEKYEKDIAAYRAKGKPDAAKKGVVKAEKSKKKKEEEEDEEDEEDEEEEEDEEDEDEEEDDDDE
UniProt Q03113: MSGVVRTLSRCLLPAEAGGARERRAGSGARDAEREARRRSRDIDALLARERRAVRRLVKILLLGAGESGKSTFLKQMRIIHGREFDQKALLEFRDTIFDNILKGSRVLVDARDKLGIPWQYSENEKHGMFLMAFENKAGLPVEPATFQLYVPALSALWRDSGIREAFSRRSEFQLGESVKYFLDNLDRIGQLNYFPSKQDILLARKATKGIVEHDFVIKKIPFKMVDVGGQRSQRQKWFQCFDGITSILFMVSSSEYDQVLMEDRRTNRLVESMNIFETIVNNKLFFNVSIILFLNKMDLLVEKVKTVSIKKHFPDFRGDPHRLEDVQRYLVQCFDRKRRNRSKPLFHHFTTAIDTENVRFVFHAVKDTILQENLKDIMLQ
UniProt O14641: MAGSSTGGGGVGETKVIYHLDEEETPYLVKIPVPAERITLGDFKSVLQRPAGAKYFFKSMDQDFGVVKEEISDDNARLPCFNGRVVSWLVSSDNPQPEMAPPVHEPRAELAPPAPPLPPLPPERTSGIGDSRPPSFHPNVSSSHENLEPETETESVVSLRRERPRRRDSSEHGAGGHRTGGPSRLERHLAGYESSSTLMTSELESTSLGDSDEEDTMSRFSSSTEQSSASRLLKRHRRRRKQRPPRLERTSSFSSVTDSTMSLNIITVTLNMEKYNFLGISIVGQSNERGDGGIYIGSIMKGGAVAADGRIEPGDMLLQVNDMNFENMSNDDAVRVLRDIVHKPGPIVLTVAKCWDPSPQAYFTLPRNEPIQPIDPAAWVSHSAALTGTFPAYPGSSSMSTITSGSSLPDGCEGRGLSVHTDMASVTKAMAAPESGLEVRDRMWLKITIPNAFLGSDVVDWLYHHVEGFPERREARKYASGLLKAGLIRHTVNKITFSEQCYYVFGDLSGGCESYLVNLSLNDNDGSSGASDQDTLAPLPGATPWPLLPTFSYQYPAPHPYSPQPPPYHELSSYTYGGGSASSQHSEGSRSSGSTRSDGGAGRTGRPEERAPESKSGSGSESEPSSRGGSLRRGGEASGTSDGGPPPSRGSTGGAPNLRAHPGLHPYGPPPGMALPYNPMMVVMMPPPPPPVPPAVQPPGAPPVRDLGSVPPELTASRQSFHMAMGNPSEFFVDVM
UniProt P04792: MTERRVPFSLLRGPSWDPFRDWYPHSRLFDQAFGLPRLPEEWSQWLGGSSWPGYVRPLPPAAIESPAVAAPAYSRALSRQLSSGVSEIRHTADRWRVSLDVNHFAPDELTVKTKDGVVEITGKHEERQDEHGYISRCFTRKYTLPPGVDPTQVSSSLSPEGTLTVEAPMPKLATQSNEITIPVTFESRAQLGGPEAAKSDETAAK
UniProt O43399: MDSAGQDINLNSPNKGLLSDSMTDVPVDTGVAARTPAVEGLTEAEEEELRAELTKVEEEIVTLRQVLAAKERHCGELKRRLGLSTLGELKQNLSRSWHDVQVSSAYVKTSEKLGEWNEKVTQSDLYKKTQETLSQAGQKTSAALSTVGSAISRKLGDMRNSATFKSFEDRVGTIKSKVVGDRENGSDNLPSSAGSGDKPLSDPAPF
UniProt O43432: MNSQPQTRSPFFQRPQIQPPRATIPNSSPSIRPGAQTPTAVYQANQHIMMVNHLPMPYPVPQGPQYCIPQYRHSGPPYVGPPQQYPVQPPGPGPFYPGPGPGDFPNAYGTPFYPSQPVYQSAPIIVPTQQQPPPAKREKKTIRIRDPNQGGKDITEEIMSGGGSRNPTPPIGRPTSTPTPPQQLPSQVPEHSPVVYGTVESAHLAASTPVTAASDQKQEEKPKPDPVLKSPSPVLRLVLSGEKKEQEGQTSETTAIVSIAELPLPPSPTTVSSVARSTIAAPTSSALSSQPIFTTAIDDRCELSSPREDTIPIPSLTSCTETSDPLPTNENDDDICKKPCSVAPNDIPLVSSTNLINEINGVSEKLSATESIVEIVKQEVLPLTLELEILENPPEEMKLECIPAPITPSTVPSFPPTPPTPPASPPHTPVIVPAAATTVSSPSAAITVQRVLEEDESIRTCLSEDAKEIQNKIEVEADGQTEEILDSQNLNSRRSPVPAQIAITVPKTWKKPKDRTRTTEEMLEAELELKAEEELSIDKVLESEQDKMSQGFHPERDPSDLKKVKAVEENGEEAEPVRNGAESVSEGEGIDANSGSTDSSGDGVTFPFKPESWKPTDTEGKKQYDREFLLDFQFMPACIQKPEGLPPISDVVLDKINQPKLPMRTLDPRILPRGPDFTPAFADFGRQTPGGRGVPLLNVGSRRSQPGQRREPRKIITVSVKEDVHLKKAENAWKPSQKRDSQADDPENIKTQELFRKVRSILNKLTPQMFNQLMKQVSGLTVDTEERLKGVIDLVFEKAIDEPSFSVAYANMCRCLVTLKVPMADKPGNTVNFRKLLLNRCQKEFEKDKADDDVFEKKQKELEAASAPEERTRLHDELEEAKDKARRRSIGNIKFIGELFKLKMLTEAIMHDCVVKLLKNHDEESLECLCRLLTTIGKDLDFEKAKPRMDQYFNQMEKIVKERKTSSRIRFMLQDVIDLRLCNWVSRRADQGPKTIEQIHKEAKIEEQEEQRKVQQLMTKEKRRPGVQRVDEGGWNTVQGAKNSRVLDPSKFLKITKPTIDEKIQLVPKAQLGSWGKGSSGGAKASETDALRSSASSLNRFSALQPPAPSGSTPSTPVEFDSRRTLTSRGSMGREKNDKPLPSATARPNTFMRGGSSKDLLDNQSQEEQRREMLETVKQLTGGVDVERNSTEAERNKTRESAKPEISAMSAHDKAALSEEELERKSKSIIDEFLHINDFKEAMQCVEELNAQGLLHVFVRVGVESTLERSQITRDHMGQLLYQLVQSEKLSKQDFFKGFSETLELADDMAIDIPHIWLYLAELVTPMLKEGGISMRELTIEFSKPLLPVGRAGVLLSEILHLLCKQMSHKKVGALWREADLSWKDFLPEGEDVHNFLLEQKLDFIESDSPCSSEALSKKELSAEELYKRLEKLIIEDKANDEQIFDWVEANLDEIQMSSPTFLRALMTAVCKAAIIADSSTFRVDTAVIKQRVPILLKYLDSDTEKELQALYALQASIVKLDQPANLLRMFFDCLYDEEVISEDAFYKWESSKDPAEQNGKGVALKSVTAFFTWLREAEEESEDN
UniProt Q6UB35, residues 32-978: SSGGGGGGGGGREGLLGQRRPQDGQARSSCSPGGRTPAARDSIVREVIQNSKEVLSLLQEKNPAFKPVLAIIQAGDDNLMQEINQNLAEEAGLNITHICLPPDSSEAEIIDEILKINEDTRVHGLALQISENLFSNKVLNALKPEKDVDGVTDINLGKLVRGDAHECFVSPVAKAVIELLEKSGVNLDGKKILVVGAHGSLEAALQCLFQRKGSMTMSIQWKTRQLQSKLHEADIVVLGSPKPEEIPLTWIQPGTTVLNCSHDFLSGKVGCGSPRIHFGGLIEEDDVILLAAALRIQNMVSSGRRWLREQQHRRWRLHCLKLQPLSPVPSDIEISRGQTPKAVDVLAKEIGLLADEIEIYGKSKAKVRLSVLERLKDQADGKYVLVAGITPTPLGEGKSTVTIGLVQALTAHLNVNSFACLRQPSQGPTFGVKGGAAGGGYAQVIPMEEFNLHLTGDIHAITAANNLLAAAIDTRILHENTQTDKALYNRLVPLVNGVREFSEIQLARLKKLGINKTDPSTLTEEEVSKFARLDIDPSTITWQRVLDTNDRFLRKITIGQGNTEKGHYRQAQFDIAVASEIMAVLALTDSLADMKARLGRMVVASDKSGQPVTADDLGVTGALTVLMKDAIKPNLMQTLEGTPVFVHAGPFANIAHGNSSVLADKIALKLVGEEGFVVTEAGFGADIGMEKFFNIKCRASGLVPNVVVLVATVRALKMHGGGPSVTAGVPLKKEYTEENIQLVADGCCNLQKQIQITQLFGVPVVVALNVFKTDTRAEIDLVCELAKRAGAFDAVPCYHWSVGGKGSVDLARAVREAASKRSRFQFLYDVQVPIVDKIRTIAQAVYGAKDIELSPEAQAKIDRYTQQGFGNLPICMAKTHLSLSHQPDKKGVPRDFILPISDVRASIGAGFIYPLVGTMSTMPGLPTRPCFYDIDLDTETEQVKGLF
UniProt Q9BYG3: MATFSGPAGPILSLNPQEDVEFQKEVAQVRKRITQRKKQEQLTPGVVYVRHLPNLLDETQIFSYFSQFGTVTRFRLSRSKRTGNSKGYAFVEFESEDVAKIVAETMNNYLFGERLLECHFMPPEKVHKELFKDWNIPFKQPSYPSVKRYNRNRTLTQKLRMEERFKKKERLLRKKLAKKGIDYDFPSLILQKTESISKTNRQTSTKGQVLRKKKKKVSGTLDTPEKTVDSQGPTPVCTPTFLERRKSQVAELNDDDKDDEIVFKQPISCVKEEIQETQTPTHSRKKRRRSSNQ

Columns and labels:
MycBioID2-HMGB1 [1] = target: MycBioID2-HMGB1 (UniProt P09429); assay: proximity labelling; BioID2: doxycycline-induced MycBioID2-HMGB1 in SILAC-labelled THP-1 cells, biotin 24 h, resting (light) or LPS 100 ng/ml (heavy); lysates pooled 1:1, biotinylated proteins taken on streptavidin Dynabeads, on-bead digestion, LC-MS/MS (n = 3)
MycBioID2-HMGB1 [2] = target: MycBioID2-HMGB1 (UniProt P09429); assay: as above; remark: listed apart in the source

Molecule	binding (MycBioID2-HMGB1 [1])	binding (MycBioID2-HMGB1 [2])
GNA12 (from UniProt Q03113 1-381)	binds	–
DVL2 (from UniProt O14641 1-736)	binds	–
HSPB1 (from UniProt P04792 1-205)	binds	–
TPD52L2 (from UniProt O43399 1-206)	binds	–
HCLS1 (protein, UniProt P14317 1-486) MWKSVVGHDVSVSVETQGDDWDTDPDFVNDISEKEQRWGAKTIEGSGRTEHINIHQLRNKVSEEHDVLRKKEMESGPKASHGYGGRFGVERDRMDKSAVGHEYVAEVEKHSSQTDAAKGFGGKYGVERDRADKSAVGFDYKGEVEKHTSQKDYSRGFGGRYGVEKDKWDKAALGYDYKGETEKHESQRDYAKGFGGQYGIQKDRVDKSAVGFNEMEAPTTAYKKTTPIEAASSGTRGLKAKFESMAEEKRKREEEEKAQQVARRQQERKAVTKRSPEAPQPVIAMEEPAVPAPLPKKISSEAWPPVGTPPSSESEPVRTSREHPVPLLPIRQTLPEDNEEPPALPPRTLEGLQVEEEPVYEAEPEPEPEPEPEPENDYEDVEEMDRHEQEDEPEGDYEEVLEPEDSSFSSALAGSSGCPAGAGAGAVALGISAVAVYDYQGEGSDELSFDPDDVITDIEMVDEGWWRGRCHGHFGLFPANYVKLLE	–	binds

Second part, the molecule after the results:

binding (MycBioID2-HMGB1 [1])	binding (MycBioID2-HMGB1 [2])	Molecule
binds	–	EIF4G3 (from UniProt O43432 1-1585)
binds	–	MTHFD1L (from UniProt Q6UB35 32-978)
binds	–	NIFK (from UniProt Q9BYG3 1-293)
–	binds	CACTIN (protein, UniProt Q8WUQ7 1-758) MGRDTRSRSRSAGRRGRRRQSQSGSRSRSRSHGRRNRRRREDEGRRRRRRRSRERRSDSEEERWQRSGMRSRSPPRPKWHSRDGSSQSDSGEEQSRGQWARRRRRARSWSPSSSASSSASPGRSQSPRAAAAALSQQQSLQERLRLREERKQQEELMKAFETPEEKRARRLAKKEAKERKKREKMGWGEEYMGYTNTDNPFGDNNLLGTFIWNKALEKKGISHLEEKELKERNKRIQEDNRLELQKVKQLRLEREREKAMREQELEMLQREKEAEHFKTWEEQEDNFHLQQAKLRSKIRIRDGRAKPIDLLAKYISAEDDDLAVEMHEPYTFLNGLTVADMEDLLEDIQVYMELEQGKNADFWRDMTTITEDEISKLRKLEASGKGPGERREGVNASVSSDVQSVFKGKTYNQLQVIFQGIEGKIRAGGPNLDMGYWESLLQQLRAHMARARLRERHQDVLRQKLYKLKQEQGVESEPLFPILKQEPQSPSRSLEPEDAAPTPPGPSSEGGPAEAEVDGATPTEGDGDGDGEGEGEGEAVLMEEDLIQQSLDDYDAGRYSPRLLTAHELPLDAHVLEPDEDLQRLQLSRQQLQVTGDASESAEDIFFRRAKEGMGQDEAQFSVEMPLTGKAYLWADKYRPRKPRFFNRVHTGFEWNKYNQTHYDFDNPPPKIVQGYKFNIFYPDLIDKRSTPEYFLEACADNKDFAILRFHAGPPYEDIAFKIVNREWEYSHRHGFRCQFANGIFQLWFHFKRYRYRR
–	binds	CAT (protein, UniProt P04040 1-527) MADSRDPASDQMQHWKEQRAAQKADVLTTGAGNPVGDKLNVITVGPRGPLLVQDVVFTDEMAHFDRERIPERVVHAKGAGAFGYFEVTHDITKYSKAKVFEHIGKKTPIAVRFSTVAGESGSADTVRDPRGFAVKFYTEDGNWDLVGNNTPIFFIRDPILFPSFIHSQKRNPQTHLKDPDMVWDFWSLRPESLHQVSFLFSDRGIPDGHRHMNGYGSHTFKLVNANGEAVYCKFHYKTDQGIKNLSVEDAARLSQEDPDYGIRDLFNAIATGKYPSWTFYIQVMTFNQAETFPFNPFDLTKVWPHKDYPLIPVGKLVLNRNPVNYFAEVEQIAFDPSNMPPGIEASPDKMLQGRLFAYPDTHRHRLGPNYLHIPVNCPYRARVANYQRDGPMCMQDNQGGAPNYYPNSFGAPEQQPSALEHSIQYSGEVRRFNTANDDNVTQVRAFYVNVLNEEQRKRLCENIAGHLKDAQIFIQKKAVKNFTEVHPDYGSHIQALLDKYNAEKPKNAIHTFVQSGSHLAAREKANL
–	binds	DVL1 (protein, UniProt O14640 1-695) MAETKIIYHMDEEETPYLVKLPVAPERVTLADFKNVLSNRPVHAYKFFFKSMDQDFGVVKEEIFDDNAKLPCFNGRVVSWLVLAEGAHSDAGSQGTDSHTDLPPPLERTGGIGDSRPPSFHPNVASSRDGMDNETGTESMVSHRRERARRRNREEAARTNGHPRGDRRRDVGLPPDSASTALSSELESSSFVDSDEDGSTSRLSSSTEQSTSSRLIRKHKRRRRKQRLRQADRASSFSSITDSTMSLNIVTVTLNMERHHFLGISIVGQSNDRGDGGIYIGSIMKGGAVAADGRIEPGDMLLQVNDVNFENMSNDDAVRVLREIVSQTGPISLTVAKCWDPTPRSYFTVPRADPVRPIDPAAWLSHTAALTGALPRYGTSPCSSAVTRTSSSSLTSSVPGAPQLEEAPLTVKSDMSAVVRVMQLPDSGLEIRDRMWLKITIANAVIGADVVDWLYTHVEGFKERREARKYASSLLKHGFLRHTVNKITFSEQCYYVFGDLCSNLATLNLNSGSSGTSDQDTLAPLPHPAAPWPLGQGYPYQYPGPPPCFPPAYQDPGFSYGSGSTGSQQSEGSKSSGSTRSSRRAPGREKERRAAGAGGSGSESDHTAPSGVGSSWRERPAGQLSRGSSPRSQASATAPGLPPPHPTTKAYTVVGGPPGGPPVRELAAVPPELTGSRQSFQKAMGNPCEFFVDIM
–	binds	TADA2B (protein, UniProt Q86TJ2 1-420) MAELGKKYCVYCLAEVSPLRFRCTECQDIELCPECFSAGAEIGHHRRYHGYQLVDGGRFTLWGPEAEGGWTSREEQLLLDAIEQFGFGNWEDMAAHVGASRTPQEVMEHYVSMYIHGNLGKACIPDTIPNRVTDHTCPSGGPLSPSLTTPLPPLDISVAEQQQLGYMPLRDDYEIEYDQDAETLISGLSVNYDDDDVEIELKRAHVDMYVRKLKERQRRKNIARDYNLVPAFLGKDKKEKEKALKRKITKEEKELRLKLRPLYQFMSCKEFDDLFENMHKEKMLRAKIRELQRYRRNGITKMEESAEYEAARHKREKRKENKNLAGSKRGKEDGKDSEFAAIENLPGFELLSDREKVLCSSLNLSPARYVTVKTIIIKDHLQKRQGIPSKSRLPSYLDKVLKKRILNFLTESGWISRDAS

Where two headings read alike, the source gives them in different places. Results are given in words; binding and its absence hold for the method and conditions named. In cells and extracts the contact can be indirect. These calls come from enrichment with a bait or labelling near it, and not all partners need be listed.
